# Source: PubChem BioAssay AID1053208 (Peter MacCallum Cancer Centre, 2014)
# Assay: 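Find knock-downs that sensitise mouse osteosarcoma cells to doxorubicin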 (primary screen)
# Cell system: mouse osteosarcoma cells, early-passage culture from an engineered mouse model of fibroblastic bone tumour
# Reagent: siRNA pool against mouse genes, 40 nM
# Time to read-out: about 120 h (48 h before drug, then 72 h with drug)
# Conditions: doxorubicin 100 nM for 72 h, roughly 30-40% inhibitory dose
# Read-out: 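Viability read as ATP luminescence after 72 h of 100 nM doxorubicin or none, duplicate wells averaged, scaled to non-targeting siRNA, then expressed as robust z-scores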
# Direction: viability z-score with doxorubicin: higher = more viable cells under doxorubicin; viability z-score without drug: higher = more viable cells with knock-down alone
# Active means: 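a pool counts as active when its viability z-score with doxorubicin is -2 or below and its z-score without drug lies between -2 and 2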
# This is one part, drawn at random, of about 17,000 reagents tested. 788 of them (4.7%) were called active. 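Calls rest on z-score classes alone; an extra cut-off of viability at most 70% of control was not applied to them.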 Further read-outs or replicates are left out here. No sequences are given here.
gene,combined z-score class,viability z-score with doxorubicin,viability z-score without drug,activity call
Rapgef5,no change with or without drug,0.79,-0.17,inactive
Mpp4,low cell count with and without drug,-3.37,-3.71,inactive
Slain2,no change with or without drug,-1.35,-0.51,inactive
Efemp1,no change with or without drug,0.67,1.18,inactive
Eif3i,low cell count with and without drug,-4.38,-4.89,inactive
Sorbs3,no change with or without drug,-1.12,-0.51,inactive
Nup153,no change with or without drug,0.11,-0.17,inactive
Angptl1,no change with or without drug,-0.79,-0.51,inactive
A830031A19Rik,no change with or without drug,0.22,0.51,inactive
Zfp53,no change with or without drug,0.9,0.34,inactive
Dclk3,no change with or without drug,-0.67,-1.18,inactive
Naprt,no change with or without drug,0.34,-0.17,inactive
Tmem131l,no change with or without drug,-1.57,1.18,inactive
Gngt1,no change with or without drug,-0.45,-0.67,inactive
Plekhm1,no change with or without drug,-0.22,-0.17,inactive
Zfp952,no change with or without drug,0,-0.51,inactive
Nop10,no change with or without drug,-1.12,-1.18,inactive
Or8k37,no change with or without drug,-0.22,-1.52,inactive
Pak1,no change with or without drug,-0.34,-0.17,inactive
Pgls,no change with or without drug,-1.69,0.84,inactive

2 entries from above, set out differently:
gene	combined z-score class	viability z-score with doxorubicin	viability z-score without drug	activity call
Plekhm1	no change with or without drug	-0.22	-0.17	inactive
Zfp952	no change with or without drug	0	-0.51	inactive
